# Test results reported in PubChem BioAssay AID1259415 (National Center for Advancing Translational Sciences (NCATS), 2018).
# The campaign covered roughly 410,000 compounds. About 18,000 (4.4%) were called active. The shares of active, inactive and inconclusive entries below differ from those in the screen. No stated cut-off is given here; in the data, active means activity change below about -60%; inconclusive means no clear call, values can overlap the other calls; inactive means above about -39%.
# Assay: qHTS Assay for inhibitors of the human cytomegalovirus (HCMV)
# Conditions: HFF cells, HCMV-luciferase reporter, 72 h; at 57.5 µM; stronger effect = lower value
# Procedure, shortened: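 Screen run at 2 compound doses on HFFs infected with reporter HCMV, MOI 1 PFU/cell. Luciferase activity from cell lysates at 72 h post infection gave inhibition relative to buffer-only and Salinomycin wells.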
# On the % scale 0 is the no-effect control and ±100 the full control effect.
row,Compound,"activity change, negative = inhibition"
1,Cn1c(C(O)c2ccc3c(c2)OCO3)nc2ccccc21 (centres undefined),inconclusive: -56.7%
2,O=C1NC[C@H](Cc2ccccc2)N(C[C@H]2CCCN2C[C@H](Cc2ccc(O)cc2)N2C[C@H](Cc3ccc(O)cc3)N(CC3CCCCCC3)C(=O)C2=O)C1=O,inconclusive: -40.8%
3,Cn1cc(C2N3CC4(C)CN2CC(C)(C3)C4=O)c2ccccc21 (centres undefined),inconclusive: -46.2%
4,COc1ccccc1CN1CC(C(=O)NCCN(C)CCc2ccccc2)CCC1=O (centres undefined),inactive: -25.1%
5,Cc1cc(=O)[nH]c(SCC(=O)Nc2ccc3c(c2)OCCO3)n1,inactive: -29.9%
6,O=C(NC1CCN(C(=O)Nc2ccc(F)cc2)CC1)c1ccc(F)cc1,inconclusive: -55.7%
7,O=C(NCCC1=CCCCC1)C(=O)NCC(c1ccco1)N1CCN(c2ccc(F)cc2)CC1 (centres undefined),inconclusive: -43.2%
8,O=C(O)[C@H]1CCCC[C@H]1C(=O)Nc1ccc(S(=O)(=O)N2CCCCC2)cc1,inconclusive: -50.5%
9,Cc1ccc(CNC(=O)CCc2nc(-c3cccs3)no2)cc1,active: -74.5%
10,C=C(C)CNC(=S)NNC(=O)CCn1c2ccc(Cl)cc2c2cc(Cl)ccc21,active: -82.5%
11,Cc1oc2ncn(C)c(=O)c2c1C(=O)N1CCN(c2ccccc2F)CC1,inactive: 11.5%
12,COc1ccccc1CN1CC(C(=O)NCC2(O)CCCCC2)CCC1=O (centres undefined),active: -64.3%
13,COc1ccc(C(=O)Nc2ccc(S(=O)(=O)N3CCc4ccccc43)cc2)cc1,active: -90.3%
14,CC(C)(C)CC(C)(C)N=C1NS(=O)(=O)c2cc([N+](=O)[O-])ccc21,inconclusive: -42.7%
15,CCOc1ccc(NC(=O)c2ccccc2NC(=O)c2cccnc2)cc1,inconclusive: -44.6%
16,Cn1nnnc1Sc1ncnc2scc(-c3ccc4c(c3)OCO4)c12,active: -86.1%
17,O=C(CCC(=O)NNC(=O)Nc1cccc(Cl)c1)NCc1ccccc1,inconclusive: -52.1%
18,C=CCSc1nc2c(N)ncnc2n1C1OC(CO)C(O)C1O (centres undefined),inconclusive: -42.3%
19,CNS(=O)(=O)c1cc(Nc2ncnc3sccc23)ccc1C,inconclusive: -49.9%
20,COC(CNC(=O)c1cccnc1)OC,active: -61.7%
21,COc1ccc(S(=O)(=O)N(CC(=O)NCCCN(C)C)c2ccc(C)cc2)cc1OC,inconclusive: -53.8%

row,Compound,"activity change, negative = inhibition"
1,C=CCOc1nc2c(c(=O)n(C)c(=O)n2C)n1Cc1ccc(Cl)cc1,inconclusive: -55%
2,NC(=O)Nc1ccc(C(=O)OCC(=O)Nc2ccc(Cl)cn2)cc1,inconclusive: -42.9%
3,CC1(C(=O)NS(=O)(=O)c2ccc3ccccc3c2)CCN1C(=O)CC1CCCCC1 (centres undefined),inactive: -2.23%
4,CC(C)n1c(O)c(N=NC(=O)C2COc3ccccc3O2)c2ccccc21 (centres undefined),inactive: 1.73%
5,O=C(NCCCN1CCN(c2ccc(F)cc2)CC1)c1ccc2nc(Cc3ccccc3)oc2c1,inconclusive: -56.7%
6,Cc1cc(C)c(C)c(OCC(=O)N2CCOCC2)c1,inactive: 8.28%
7,CCn1cc(C2=NOC(C(=O)Nc3cc(OC)c(Cl)cc3OC)C2)c(C)n1 (centres undefined),inactive: -26%
8,Cc1ccc2c(c1)C1CN(C)CCC1N2C(=O)COc1ccc(N(C)S(=O)(=O)c2cccs2)cc1 (centres undefined),inconclusive: -55.2%
9,Cc1ccc(Cn2c(=N)n(CC(=O)c3ccc([N+](=O)[O-])cc3)c3ccccc32)cc1,active: -92.4%
10,C=C1C(=O)OC2C1C(OC(=O)C(C)=CC)CC(=C)C1C(O)C3OC3(C)C21O (centres undefined),inconclusive: -53.6%
11,CCn1cc([N+](=O)[O-])c(C(=O)NCc2ccc(Cl)cc2)n1,inconclusive: -50.4%
12,Cc1ccc(NC(=S)N(CCN2CCOCC2)Cc2ccccc2F)cc1,inactive: 36.7%
13,CC(C)(C)NS(=O)(=O)c1cc(C(=O)Nc2sccc2C#N)ccc1Cl,inconclusive: -40.6%
14,COc1ccc(C(=O)Oc2cc(/C=N/NS(=O)(=O)c3ccc(C)cc3)ccc2OC)cc1,active: -102%
15,O=C(C[n+]1cc(-c2ccc(F)cc2)n2c1CCC2)N1c2ccccc2Sc2ccccc21,inactive: -32.5%
16,COc1cc(C(C[N+](=O)[O-])c2c(C)cc3ccccn23)ccc1O (centres undefined),active: -64.4%
17,Cc1ccc(N2C(=O)[C@@H]3C(c4ccc(F)cc4)=NO[C@@H]3C2=O)cc1,inactive: -35.5%
18,Cc1ccc(C(=O)Nc2ccccc2SCC2CSc3nc4ccccc4c(=O)n32)cc1 (centres undefined),active: -84.8%
19,COc1cccc(N2CCN(C(=O)Cn3c(-c4cccs4)cc4ccccc43)CC2)c1,inactive: 1.48%
20,CCOc1cc(C(=O)NC(C)C2CCCO2)cc(OCC)c1OCC (centres undefined),inactive: -3.59%
21,Cc1ccc(C)c(-n2nnnc2SCC(=O)c2c(N)n(C)c(=O)n(C)c2=O)c1,inactive: -19.3%

# Part of the list above, with tabs:
row	Compound	activity change, negative = inhibition
3	Cn1cc(C2N3CC4(C)CN2CC(C)(C3)C4=O)c2ccccc21 (centres undefined)	inconclusive: -46.2%
14	CC(C)(C)CC(C)(C)N=C1NS(=O)(=O)c2cc([N+](=O)[O-])ccc21	inconclusive: -42.7%
4	CC(C)n1c(O)c(N=NC(=O)C2COc3ccccc3O2)c2ccccc21 (centres undefined)	inactive: 1.73%
8	Cc1ccc2c(c1)C1CN(C)CCC1N2C(=O)COc1ccc(N(C)S(=O)(=O)c2cccs2)cc1 (centres undefined)	inconclusive: -55.2%

# More structures.

row,Compound,"activity change, negative = inhibition"
1,Cc1cc(C(=O)COc2ccccc2C(N)=O)c(C)n1C1CC1,inconclusive: -47.5%
2,CC(C)(C)c1ccc(C(O)c2ncc(-c3ccccc3)[nH]2)cc1 (centres undefined),inconclusive: -42.9%
3,O=C(Cn1nc(C(F)(F)F)cc1C1CC1)NCc1ccccc1F,active: -68.6%
4,CCC(=O)NC(c1cccs1)c1cc(Cl)c2cccnc2c1O (centres undefined),inconclusive: -48.6%
5,O=C(Nc1cccc(Cl)c1)c1cc2c(=O)[nH]c3ccccc3c2s1,inactive: 34.1%
6,CCc1ccc2nc(N3CCC(C(=O)N4CCC5(CC4)OCCO5)CC3)sc2c1,inconclusive: -48.1%
7,CN(CC(=O)Nc1ccc(F)cc1)C(=O)COC(=O)c1cc(S(=O)(=O)N(C)C)ccc1N1CCCC1,inactive: 9.82%
8,CCCCC(CC)C(=O)Nc1ccc(C)c(O)c1 (centres undefined),inconclusive: -46.9%
9,Cc1ccc(Cl)cc1N1CCN(S(=O)(=O)c2cc3c(cc2C)NC(=O)CO3)CC1,inconclusive: -45.7%
10,COc1ccc(CCNC(=O)C2CCCN(c3nc4ccccc4s3)C2)cc1OC (centres undefined),inconclusive: -55.1%
11,CCN(CC)S(=O)(=O)c1ccc2c(c1)nc(CCC(=O)Nc1ccc3c(c1)OCO3)n2CC,active: -68.1%
12,CCOc1ccc(N2CC(C(=O)Nc3cc(OCC)c(N4CCOCC4)cc3OCC)CC2=O)cc1 (centres undefined),inactive: -39.1%
13,CCNC(=O)C1(C)CCCN(C(=O)c2ccc3c(c2)C(C)(C)CCC3(C)C)C1 (centres undefined),inconclusive: -40.5%
14,CC1=C(C(=O)Nc2nc3ccccc3s2)C(c2ccco2)C(C#N)=C(SCC(=O)NC2CCCCC2)N1 (centres undefined),inconclusive: -48.2%
15,CS(=O)(=O)c1nc(S(=O)(=O)c2ccc(Cl)cc2)c(NCCCN2CCCC2=O)s1,inconclusive: -40.3%
16,Cc1nn2c(N3CCN(C(=O)c4ccco4)CC3)cc(C(C)(C)C)nc2c1-c1ccccc1,active: -64%
17,CC1CC(C)CN(c2ccc([N+](=O)[O-])nc2)C1 (centres undefined),inconclusive: -41.7%
18,NCC/C=C1/c2ccccc2CSc2ccccc21,inactive: -4.85%
19,O=C(NCCc1ccccc1Cl)c1ccc2c(c1)nc1n2CCCCC1,active: -80.6%
20,Cn1nccc1NC(=O)Nc1cccc(Cl)c1Cl,inconclusive: -48.5%
21,O=C(NCc1ccccc1)C(c1ccccc1F)N(C(=O)c1csnn1)C1CCCC1 (centres undefined),inconclusive: -52.6%

row,Compound,"activity change, negative = inhibition"
1,Cc1ccc(-n2c(SCC(=O)NCCN3C(=O)CSC3=O)nnc2-c2ccccc2)cc1,inconclusive: -44%
2,Cc1ccc(C)c(Cn2c(C3CC(=O)N(c4ccccc4C)C3)nc3ccccc32)c1 (centres undefined),inactive: -15.3%
3,O=C(NC(=S)Nc1cccc(S(=O)(=O)NC2=NCCC2)c1)c1cc(-c2ccco2)nc2ccccc12,active: -81%
4,Cc1cc2oc(C(=O)Nc3ccc(S(=O)(=O)N4CCCCCC4)cc3)cc(=O)c2cc1C,inactive: 1.89%
5,CC(Oc1ccc(F)cc1)C(=O)Nc1cccc(-c2nn[nH]n2)c1 (centres undefined),inconclusive: -53.2%
6,O=C(Nc1nn[nH]n1)c1cc(-c2ccc(Cl)c(Cl)c2Cl)nc2ccccc12,inactive: 12.7%
7,O=S(=O)(Nc1ncccn1)c1ccc(NS(=O)(=O)c2cc(Cl)ccc2Cl)cc1,inconclusive: -50.3%
8,c1cc2c(cc1C1=NNC(=NC3CC3)SC1)OCCO2,active: -90%
9,O=C(O)c1c2c(nc3ccccc13)/C(=C/c1ccc(O)cc1)CC2,inconclusive: -51%
10,Cc1ccc(/C=N/NC(=O)CNC(=O)c2ccc(S(=O)(=O)N(C)C)cc2)o1,inconclusive: -42.8%
11,COc1ccc(-c2cc(=O)oc3cc(O)ccc23)cc1,active: -96%
12,Cc1ccc(NC(=O)CSc2nc(-c3ccco3)cc(C(F)(F)F)n2)cc1,inconclusive: -43%
13,Cc1cccc(C(=O)NC2CCN(S(=O)(=O)c3cccc(F)c3)CC2)c1,active: -60.4%
14,O=C(CSc1ncnc2sccc12)NC1CCS(=O)(=O)C1 (centres undefined),inactive: -22.5%
15,Cc1cc(C)cc(OCC(=O)NN2Cc3ccccc3C2=N)c1,inconclusive: -40.3%
16,COc1cc([C@@H]2C[C@H]3CN(c4ccccc4)C(=O)[C@]34CCCN24)cc(OC)c1OC,inconclusive: -56.1%
17,Cc1ccc(-c2ccc(=O)n(Cc3ccc(F)cc3Cl)n2)cc1,inconclusive: -52.9%
18,Clc1ccc(-c2noc3ncnc(NCCc4ccccc4)c23)cc1,inconclusive: -49.8%
19,Cc1ccc(S(=O)(=O)N2C[C@@H]3[C@H]4CC[C@H](C4)[C@@H]3[C@@H](C)[C@@H]2c2ccn(Cc3ccccc3)c2)cc1,inconclusive: -42.2%
20,Cn1c(SCC(=O)NC2CCCCC2)nnc1-c1cc2ccccc2o1,inconclusive: -53.3%
21,COc1ccccc1OCC(=O)Nc1sc2c(c1C(=O)NCC1CCCO1)CCC2 (centres undefined),inconclusive: -47%
